These are yes or no findings as the source states them, for the method shown.
Molecular target: Dishevelled (Dsh), full length, yeast two-hybrid fusion (Drosophila) (UniProt P51140)
Assay: two-hybrid; yeast strain AH109, Matchmaker Two-Hybrid System 3 (pGADT7 and pGBKT7 cotransformed); growth on SD/-Ade/-His/-Leu/-Trp with X-alpha-Gal taken as positive

Protein sequences, listed by entry. Tags and fused reporters are not part of them. Lines headed by an entry give the natural chain unless they say otherwise; changes in a name come on top.
UniProt P51140: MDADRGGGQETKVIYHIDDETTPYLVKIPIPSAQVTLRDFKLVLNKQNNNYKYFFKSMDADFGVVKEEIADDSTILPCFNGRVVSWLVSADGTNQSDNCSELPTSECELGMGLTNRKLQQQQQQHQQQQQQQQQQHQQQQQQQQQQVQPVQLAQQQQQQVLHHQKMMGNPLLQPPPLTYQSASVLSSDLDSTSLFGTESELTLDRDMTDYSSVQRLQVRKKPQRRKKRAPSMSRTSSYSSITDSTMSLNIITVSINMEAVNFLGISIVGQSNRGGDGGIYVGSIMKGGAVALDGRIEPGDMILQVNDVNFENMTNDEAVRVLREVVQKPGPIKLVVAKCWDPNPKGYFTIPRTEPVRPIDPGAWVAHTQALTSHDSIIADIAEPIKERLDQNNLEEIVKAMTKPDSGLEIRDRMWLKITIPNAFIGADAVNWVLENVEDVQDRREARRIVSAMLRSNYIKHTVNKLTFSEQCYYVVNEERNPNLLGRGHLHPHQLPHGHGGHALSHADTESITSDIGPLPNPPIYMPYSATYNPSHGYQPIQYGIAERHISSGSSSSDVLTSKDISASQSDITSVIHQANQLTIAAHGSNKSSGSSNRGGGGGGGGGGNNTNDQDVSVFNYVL
UniProt Q9VQ36: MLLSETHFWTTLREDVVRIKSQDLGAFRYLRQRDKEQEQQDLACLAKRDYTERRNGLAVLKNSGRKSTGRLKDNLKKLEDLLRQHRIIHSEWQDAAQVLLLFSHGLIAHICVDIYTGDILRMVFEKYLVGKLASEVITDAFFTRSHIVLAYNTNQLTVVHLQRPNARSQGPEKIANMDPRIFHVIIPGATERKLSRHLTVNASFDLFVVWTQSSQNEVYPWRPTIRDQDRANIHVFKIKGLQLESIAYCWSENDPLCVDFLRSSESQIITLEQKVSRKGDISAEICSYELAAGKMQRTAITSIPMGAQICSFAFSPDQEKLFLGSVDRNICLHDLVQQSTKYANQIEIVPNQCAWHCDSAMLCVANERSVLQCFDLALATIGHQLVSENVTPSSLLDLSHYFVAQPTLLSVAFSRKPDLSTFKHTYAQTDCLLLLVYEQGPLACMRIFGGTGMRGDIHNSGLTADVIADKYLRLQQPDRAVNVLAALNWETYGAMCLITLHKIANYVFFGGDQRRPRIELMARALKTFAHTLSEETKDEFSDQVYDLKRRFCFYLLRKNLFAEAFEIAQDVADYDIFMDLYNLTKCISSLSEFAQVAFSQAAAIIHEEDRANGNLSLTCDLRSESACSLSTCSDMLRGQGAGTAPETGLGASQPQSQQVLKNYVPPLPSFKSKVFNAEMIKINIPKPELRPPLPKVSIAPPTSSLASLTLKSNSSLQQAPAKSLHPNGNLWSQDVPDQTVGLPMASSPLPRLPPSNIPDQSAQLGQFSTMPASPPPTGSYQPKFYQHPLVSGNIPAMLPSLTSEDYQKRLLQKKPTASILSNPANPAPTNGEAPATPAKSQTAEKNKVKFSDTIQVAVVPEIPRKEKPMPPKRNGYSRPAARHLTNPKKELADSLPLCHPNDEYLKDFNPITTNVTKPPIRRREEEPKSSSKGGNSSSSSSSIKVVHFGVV

binding: no binding
Substance: Frtz with aa 1-300 deleted (from UniProt Q9VQ36)

From article PMC5386880
